Where two headings read alike, the source gives them in different places. These are yes or no findings as the source states them, for the method shown. In cells and extracts the contact can be indirect. Some binding calls cover weakened binding; strength is not graded here. Sequences can lack the tags named with a protein.
T1: Flag-MARCH7-WT (wild-type membrane-associated RING-CH 7) (UniProt Q9H992)
T1 sequence: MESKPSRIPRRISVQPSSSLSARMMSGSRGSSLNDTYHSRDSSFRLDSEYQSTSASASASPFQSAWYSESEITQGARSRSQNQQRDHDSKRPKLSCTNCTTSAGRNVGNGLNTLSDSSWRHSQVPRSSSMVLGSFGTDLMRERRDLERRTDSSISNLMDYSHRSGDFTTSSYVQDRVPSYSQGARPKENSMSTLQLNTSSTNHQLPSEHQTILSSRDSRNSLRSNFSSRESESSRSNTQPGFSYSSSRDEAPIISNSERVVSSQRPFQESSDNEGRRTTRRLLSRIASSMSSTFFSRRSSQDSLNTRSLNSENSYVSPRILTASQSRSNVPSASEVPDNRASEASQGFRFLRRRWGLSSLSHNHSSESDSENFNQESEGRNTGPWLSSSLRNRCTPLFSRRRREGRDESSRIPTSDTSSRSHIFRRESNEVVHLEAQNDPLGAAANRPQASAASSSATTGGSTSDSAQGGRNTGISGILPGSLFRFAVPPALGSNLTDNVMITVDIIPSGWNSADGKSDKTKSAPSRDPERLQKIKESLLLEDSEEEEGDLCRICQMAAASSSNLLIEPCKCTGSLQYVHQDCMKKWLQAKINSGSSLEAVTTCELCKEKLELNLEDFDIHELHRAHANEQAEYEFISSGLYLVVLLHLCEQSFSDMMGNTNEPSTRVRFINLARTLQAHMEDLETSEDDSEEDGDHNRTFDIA

Sequences of proteins named here, by UniProt entry; tags and fusion partners are left off.
UniProt Q9HC29: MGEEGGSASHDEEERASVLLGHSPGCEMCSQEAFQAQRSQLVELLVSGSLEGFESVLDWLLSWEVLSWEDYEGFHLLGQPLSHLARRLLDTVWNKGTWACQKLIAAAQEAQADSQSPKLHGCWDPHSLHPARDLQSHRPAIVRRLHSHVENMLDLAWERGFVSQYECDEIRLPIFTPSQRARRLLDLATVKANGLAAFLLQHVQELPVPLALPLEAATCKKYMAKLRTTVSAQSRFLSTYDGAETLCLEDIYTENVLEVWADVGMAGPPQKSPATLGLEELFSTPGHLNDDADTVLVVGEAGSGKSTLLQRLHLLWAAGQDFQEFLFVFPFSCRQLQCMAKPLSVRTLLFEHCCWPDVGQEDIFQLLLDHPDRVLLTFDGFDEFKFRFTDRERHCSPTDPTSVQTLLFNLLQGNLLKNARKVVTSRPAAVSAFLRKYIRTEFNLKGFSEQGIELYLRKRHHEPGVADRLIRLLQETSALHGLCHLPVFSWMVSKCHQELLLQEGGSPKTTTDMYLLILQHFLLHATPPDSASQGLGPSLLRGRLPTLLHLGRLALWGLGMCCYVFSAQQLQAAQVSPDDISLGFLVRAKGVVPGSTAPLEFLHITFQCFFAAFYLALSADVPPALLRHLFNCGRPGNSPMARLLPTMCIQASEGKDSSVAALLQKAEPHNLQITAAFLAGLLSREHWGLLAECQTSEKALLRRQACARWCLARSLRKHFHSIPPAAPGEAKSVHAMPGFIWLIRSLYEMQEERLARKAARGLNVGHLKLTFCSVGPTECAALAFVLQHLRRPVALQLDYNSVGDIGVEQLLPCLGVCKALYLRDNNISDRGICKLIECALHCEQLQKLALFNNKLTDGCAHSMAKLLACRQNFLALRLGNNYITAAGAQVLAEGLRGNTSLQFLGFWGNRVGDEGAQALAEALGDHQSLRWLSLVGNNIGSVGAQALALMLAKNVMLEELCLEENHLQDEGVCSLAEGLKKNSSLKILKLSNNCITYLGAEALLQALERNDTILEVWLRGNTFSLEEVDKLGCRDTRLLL

B1: HA-NOD1 (nucleotide-binding oligomerization domain containing 1) (protein, UniProt Q9Y239-1 1-953)
chain: MEEQGHSEMEIIPSESHPHIQLLKSNRELLVTHIRNTQCLVDNLLKNDYFSAEDAEIVCACPTQPDKVRKILDLVQSKGEEVSEFFLYLLQQLADAYVDLRPWLLEIGFSPSLLTQSKVVVNTDPVSRYTQQLRHHLGRDSKFVLCYAQKEELLLEEIYMDTIMELVGFSNESLGSLNSLACLLDHTTGILNEQGETIFILGDAGVGKSMLLQRLQSLWATGRLDAGVKFFFHFRCRMFSCFKESDRLCLQDLLFKHYCYPERDPEEVFAFLLRFPHVALFTFDGLDELHSDLDLSRVPDSSCPWEPAHPLVLLANLLSGKLLKGASKLLTARTGIEVPRQFLRKKVLLRGFSPSHLRAYARRMFPERALQDRLLSQLEANPNLCSLCSVPLFCWIIFRCFQHFRAAFEGSPQLPDCTMTLTDVFLLVTEVHLNRMQPSSLVQRNTRSPVETLHAGRDTLCSLGQVAHRGMEKSLFVFTQEEVQASGLQERDMQLGFLRALPELGPGGDQQSYEFFHLTLQAFFTAFFLVLDDRVGTQELLRFFQEWMPPAGAATTSCYPPFLPFQCLQGSGPAREDLFKNKDHFQFTNLFLCGLLSKAKQKLLRHLVPAAALRRKRKALWAHLFSSLRGYLKSLPRVQVESFNQVQAMPTFIWMLRCIYETQSQKVGQLAARGICANYLKLTYCNACSADCSALSFVLHHFPKRLALDLDNNNLNDYGVRELQPCFSRLTVLRLSVNQITDGGVKVLSEELTKYKIVTYLGLYNNQITDVGARYVTKILDECKGLTHLKLGKNKITSEGGKYLALAVKNSKSISEVGMWGNQVGDEGAKAFAEALRNHPSLTTLSLASNGISTEGGKSLARALQQNTSLEILWLTQNELNDEVAESLAEMLKVNQTLKHLWLIQNQITAKGTAQLADALQSNTGITEICLNGNLIKPEEAKVYEDEKRIICF

Key:
[1] = target: T1, Flag-MARCH7-WT (wild-type membrane-associated RING-CH 7); assay: co-IP; HA-NOD1 and Flag-MARCH7 transfected into the cells; MG132 (10 uM) for 24 h; anti-HA or anti-FLAG with protein A- or G-agarose beads; IgG as negative control; immunoblotting
[2] = target: T1, Flag-MARCH7-WT (wild-type membrane-associated RING-CH 7); assay: as above; remark: listed apart in the source

| Molecule | binding [1] | binding [2] |
| --- | --- | --- |
| NOD2 (from UniProt Q9HC29 1-1040) | no binding | – |
| B1 | – | binds |
